## Percent effect of library compounds

The filed quantity is “Percent Effect” (%). How 0% and 100% were set is not recorded. Most values in the screen are low, and negative values occur. The compounds are a random part of those screened. Two or more numbers in one place are separate tests of the same structure; such repeats can differ widely.

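Whole-cell growth test on Mycobacterium tuberculosis, read after 3 days in glucose-containing 7H9 medium; the read-out is not stated. Compounds at 50 µM. The record gives no direction; compounds that gave an IC50 in retests scored well above the rest, so higher reads as more growth inhibition. Size under these conditions: about 69,000 compounds, about 760 of them at 50% or above in at least one test.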

- CCCc1noc(CNc2ccc(C(=O)N3CCCC3)cc2C)n1 | 20.75%
- Cc1ccc(CC2COCCN(S(=O)(=O)c3ccccc3)C2)nc1 (configuration not stated) | 26.35%
- Cc1cs/c(=N\C(=O)Cn2nc(N3CCOCC3)ccc2=O)[nH]1 | 6.338% and 1.299%
- CC(=O)N1CCC(c2cnc(NC3CCOCC3)cn2)CC1 | 8.438%
- CNS(=O)(=O)c1cnccc1N1CCN(C(C)C)CC1 | 2.069%
- Cc1nn(-c2ccccn2)c(C)c1[C@@H]1C=C[C@@H](NC(=O)CCC(=O)O)C1 | 5.75% and 6.339%
- CCNC(=O)NCc1ccnc(N(C)C)n1 | 6.222%
- CS(=O)(=O)NC[C@H]1Cn2c(-c3ccc4c(c3)OCCO4)cnc2CO1 | -8.7% and -0.9026%
- Cc1cc(C(=O)N2C[C@H](C(C)C)[C@@H](N(C)C)C2)cs1 | -2.799%
- O=C(c1c2c(N3CCOCC3)ncnc2n2ccccc12)N1CCCC1 | 10.62%
- CCC(Sc1ncc(CO)n1C)c1ccccc1 (configuration not stated) | -26.32%
- Cn1cc(CN2CCCC3(CCN(Cc4ccncc4)C3=O)C2)cn1 (configuration not stated) | 10.89%
- CC(C)(C)c1ncc2c(n1)CN(c1cc(NCCO)nc(N)n1)C2 | -26.28%
- CC(C)CN1CCn2nc(CNc3ncnc4[nH]ccc34)cc2C1 | 4.139% and 3.934%
- NC(=O)c1cc(C2CCCN(C(=O)CCc3ccccn3)C2)n[nH]1 (configuration not stated) | 20.8%
- [H][C@@]12CCN(S(=O)(=O)c3cccnc3)[C@]1([H])CC[C@@H](c1nnc(C)o1)O2 | 7.849%
- COc1cccc(S(=O)(=O)N2CCOC(C)(C(N)=O)C2)c1 (configuration not stated) | -5.039%
- Cc1n[nH]c(=O)c2c(NC(=O)CN3CCOC(C)C3)oc(C)c12 (configuration not stated) | -35.08%
- CC(C)c1ncc(CN2CCCC(CO)C2)cn1 (configuration not stated) | 9.206%
- CN(CC1CC1)C(=O)CN(Cc1cccc(O)c1)C1CCC(O)CC1 (configuration not stated) | 29.04%
- O=C(O)C(F)(F)F.[H][C@]12CCN(S(=O)(=O)c3cccs3)C[C@@]1([H])OCCN(CC)C2 | 19.94%
- O=C1CCC2(CCCN(C(=O)C3CCCC3)C2)CN1CCc1c[nH]cn1 (configuration not stated) | -5.295% and -1.614%
- Cc1ccc(CC(=O)N2C[C@@H](CN(C)C)[C@@H](CO)C2)cc1C | -12.87%
- CCc1n[nH]c(C2CN(Cc3nc(C4CC4)no3)CCO2)n1 (configuration not stated) | -23.35%
- CCC(CC)C(=O)n1ccn(S(=O)(=O)c2ccc(C)cc2)c1=O | -7.759%
- CC(C)c1cc(NC(=O)c2cccnc2)[nH]n1 | 2.13%
- CCOCC(O)CN1CCN(C(=O)Cc2cccc(Cl)c2)CC1 (configuration not stated) | 9.973%
- COc1ncc(CN(CCN(C)C)Cc2ccc(C)s2)cn1 | -30.42%
- COCCNS(=O)(=O)c1ccc(Cl)c(C(=O)N(C)Cc2sccc2C)c1 | -1.251%
- O=C(Cc1ccccc1)N1CCN(Cc2noc(C3CC3)n2)CC1 | -18.13%
- COCCNC(=O)NCc1cccc(-n2ccnc2)c1 | 1.534%
- CC(C)C(C)(C#N)NC(=O)CN1CCCN(Cc2ccccc2F)CC1 (configuration not stated) | -14.32%
- [H][C@@]12CCN(Cc3ccc(F)cc3)C[C@]1([H])OCCN(c1cccnc1)C2=O | -6.808% and -18.51%
- Cc1cccc(N2CCN(CCC(=O)NCc3cccnc3)CC2)c1 | -1.464%

Once more, the final 2:

| SMILES | percent effect |
|---|---|
| `[H][C@@]12CCN(Cc3ccc(F)cc3)C[C@]1([H])OCCN(c1cccnc1)C2=O` | -6.808 and -18.51 |
| `Cc1cccc(N2CCN(CCC(=O)NCc3cccnc3)CC2)c1` | -1.464 |

Data taken from ChEMBL document CHEMBL3988442, “University of Dundee, Small-Polar-MMV Screening Library” (2021).